This note sets out measurements from paper PMC9879932.

What all share (experiment): co-IP; HEK-293T co-transfected with GFP, GFP-USP49Long or GFP-USP49Short (or USP49 mutants) and the FLAG-tagged partner; lysed 24 h later in co-IP buffer (150 mM NaCl, 20 mM Tris-HCl pH 7.4, 1% NP-40, 1 mM MgCl2) with Benzonase; immunoprecipitation with anti-FLAG, control IgG or anti-CETN3 on Dynabeads Protein G; western blot
One test has as its target T1, CETN3-FLAG (human) (UniProt O15182).
T1 sequence: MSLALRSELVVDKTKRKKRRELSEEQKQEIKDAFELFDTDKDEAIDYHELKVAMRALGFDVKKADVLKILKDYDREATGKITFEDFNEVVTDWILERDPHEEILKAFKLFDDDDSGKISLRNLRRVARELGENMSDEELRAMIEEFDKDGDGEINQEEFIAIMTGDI

Another test deals with T2, USP44-FLAG-HA (UniProt Q9H0E7).
T2 sequence: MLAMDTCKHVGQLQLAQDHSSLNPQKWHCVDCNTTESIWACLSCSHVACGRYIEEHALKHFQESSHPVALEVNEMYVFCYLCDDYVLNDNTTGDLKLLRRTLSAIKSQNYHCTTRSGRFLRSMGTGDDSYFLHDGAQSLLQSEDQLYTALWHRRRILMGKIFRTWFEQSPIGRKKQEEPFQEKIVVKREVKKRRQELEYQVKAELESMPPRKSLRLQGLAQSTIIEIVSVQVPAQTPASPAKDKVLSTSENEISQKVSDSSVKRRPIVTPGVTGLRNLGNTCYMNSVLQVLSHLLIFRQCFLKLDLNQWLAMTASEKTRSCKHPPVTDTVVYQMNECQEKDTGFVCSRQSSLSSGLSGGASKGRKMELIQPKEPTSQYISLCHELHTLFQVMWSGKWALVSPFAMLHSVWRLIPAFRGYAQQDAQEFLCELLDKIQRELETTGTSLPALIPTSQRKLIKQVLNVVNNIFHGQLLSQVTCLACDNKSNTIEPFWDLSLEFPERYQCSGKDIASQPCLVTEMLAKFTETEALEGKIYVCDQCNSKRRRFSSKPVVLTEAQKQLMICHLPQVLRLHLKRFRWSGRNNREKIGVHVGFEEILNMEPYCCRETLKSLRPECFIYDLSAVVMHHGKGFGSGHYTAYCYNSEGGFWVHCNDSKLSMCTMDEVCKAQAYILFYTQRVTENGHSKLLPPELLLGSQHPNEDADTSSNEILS

In a further test the target is T3, RPN1-FLAG (ribophorin 1) (UniProt P04843).
T3 sequence: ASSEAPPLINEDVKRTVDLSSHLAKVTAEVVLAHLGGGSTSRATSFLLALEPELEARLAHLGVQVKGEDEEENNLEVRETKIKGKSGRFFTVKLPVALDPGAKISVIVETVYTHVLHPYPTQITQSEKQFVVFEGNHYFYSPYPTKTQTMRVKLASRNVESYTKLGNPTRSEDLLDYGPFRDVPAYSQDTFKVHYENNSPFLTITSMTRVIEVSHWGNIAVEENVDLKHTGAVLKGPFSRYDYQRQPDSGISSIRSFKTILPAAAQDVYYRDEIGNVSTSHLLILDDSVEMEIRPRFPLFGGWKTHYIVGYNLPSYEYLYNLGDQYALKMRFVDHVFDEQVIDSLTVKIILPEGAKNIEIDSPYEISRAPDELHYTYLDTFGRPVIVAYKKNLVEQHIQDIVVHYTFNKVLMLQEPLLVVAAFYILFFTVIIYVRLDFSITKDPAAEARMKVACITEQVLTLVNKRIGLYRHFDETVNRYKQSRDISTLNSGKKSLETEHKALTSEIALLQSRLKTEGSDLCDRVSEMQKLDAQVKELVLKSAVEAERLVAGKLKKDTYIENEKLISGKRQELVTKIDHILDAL

These are yes or no findings as the source states them, for the method shown. In cells and extracts the contact can be indirect. Binding calls can cover weak binding; strength is not graded here. Where a sequence is shown, tags or fusion partners need not be part of it.

In the case of “GFP-USP49Short (pCDH-GFP-USP49Short) (enzyme)”, the binding result with CETN3-FLAG (human) and in the test with USP44-FLAG-HA was “binds” each time.

On to “GFP-USP49Short (pEGFP-USP49Short) (enzyme)”, for which the binding entry with RPN1-FLAG (ribophorin 1) was “binds”.

With USP49Short^W158A (enzyme), in the test with CETN3-FLAG (human), the binding result was “binds”.
